Results are given in words; binding and its absence hold for the method and conditions named. For some assays here: Binding seen in cells or lysates may run through a third protein. Some entries that bind do so weakly or less than the wild type.
T1: polypeptide set forth in SEQ ID NO: 273 (human)
T1 sequence (peptide): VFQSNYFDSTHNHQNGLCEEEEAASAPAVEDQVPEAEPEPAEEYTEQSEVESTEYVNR


Key:
[1] = target: CAPRIN-1 protein on the cell surface of human cancer cells (human) (UniProt Q14444); assay: flow cytometry on Hep3B, HepG2, SK-Hep-1, SW480, as in Example 10
[2] = target: T1, polypeptide set forth in SEQ ID NO: 273 (human); assay: trypsin digest of antibody-CAPRIN-1 complex, protein A capture, LC-MS

Row | Binder | binding [1] | binding [2]
1 | anti-CAPRIN-1 monoclonal antibody #25 (antibody, V domains shown) VH: GPGLVQPSQSLSITCTVSGFSLTTYDLHWVRQSPGKGLEWLGVIWSGGSTDYNAAFISRLSISKDNSKSQVFFKMNSLQANDTAIYYCARNYGYSAWFAYWGQGTLVTVSA VL: DVLMTQTPLSLPVSLGDQASISCRSSQSIVHSNGNTYLEWYLQKPGQSPKLLIYKVSNRFSGVPDRFSGSGSGTDFTLKISRVEAEDLGVYYCFQGSHVPLTFGAGTKLELKR | binds | 
2 | anti-CAPRIN-1 monoclonal antibody #27 (antibody, V domains shown) VH: GGGLVQPGGSMRLSCVASGFTFSNSWFNWVRQSPEKGLEWVAEIRLTSDNYAIYYAESVKGRFTISRDDSKSSVYLQMNNLRAEDTGIYYCTRPETARATFAYWGQGTTVTVSS VL: DVLMTQTPLSLPVSLGDQASISCRSSQSIVHSNGNTYLEWYLQKPGQSPKVLIYKVFNRFSGVPDRFSGSGSGTDFTLKISRVEAEDLGVYYCFQGSHVPRTFGGGTKLNQTG | binds | 

The next lines start with the values.

Row | binding [1] | binding [2] | Binder
3 |  | binds | mouse monoclonal antibody #12 (antibody, V domains shown) VH: EVQLHQFGAELVKPGASVKISCKASGYTFTDYNMDWVKQSHGKSLEWIGDINPNYDSTSYNQKFKGKATLTVDKSSSTAYMELRSLTSEDTAVYYCARSRSYDYEGFAYWGQGTLVTVSA VL: DIQMTQSPASLSASVGETVTITCRASGNIHNYLAWYQQKQGKSPQLLVYNAKTLADGVPSRFSGSGSGTQYSLKINSLQPEDFGSYYCQHFWSTLTFGAGTKLELKR
4 | binds |  | anti-CAPRIN-1 monoclonal antibody #28 (antibody, V domains shown) VH: GPDLVKPGASVKISCKASGYSFTAYYMHWVKQSHGKSLEWIGRVNPNNGGTTYNQKFKGKAILTVDKSSSTAYMELRSLTFEDSAVYYCARRIYYGYFDYWGQGTTVTVSS VL: AFFAVSLGQRATISCKASQSVDYDGDSYMNWYQQKPGQPPKLLIYVASNLESGVPARFSGSGSGTDFTLNIHPVEEEDAATYYCQQSNEDPYTFGGGTKLEIKQ
5 | binds |  | anti-CAPRIN-1 monoclonal antibody #29 (antibody, V domains shown) VH: GAELVKPGASVKLSCTASGLNIRDIYMHWVKQRPEQGLEWIGKIDPANGNTKYDPKFQGKATITADTSSNTAYVQLSSLTSEDTAVYYCAGTGDYWGQGTTVTVSS VL: GTCGDIVMSQSPSSLAVSAGEKVTMSCKSSQSLLNSRTRKNYLAWVQHKPGQSPRLLIYWASTRESGVPDRFTGSGSGTDFTLTISSVQAEDLAVYYCRQSYNLVTFGAGPS

From patent US20150218285A1
